Data as given in publication doi:10.1101/2022.08.31.505729.

By UniProt entry, the sequences of proteins in these tests, tags left out. Where a name states a change or a piece, a line headed by the entry shows the natural chain unless it says otherwise.
UniProt Q8RX71: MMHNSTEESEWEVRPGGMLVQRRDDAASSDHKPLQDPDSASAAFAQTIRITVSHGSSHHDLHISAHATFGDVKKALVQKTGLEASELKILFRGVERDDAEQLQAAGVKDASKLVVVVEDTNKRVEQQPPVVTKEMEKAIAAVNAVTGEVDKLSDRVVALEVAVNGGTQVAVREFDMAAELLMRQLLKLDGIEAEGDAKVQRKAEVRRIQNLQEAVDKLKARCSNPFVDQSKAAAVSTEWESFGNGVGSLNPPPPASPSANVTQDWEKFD
UniProt Q8LF20: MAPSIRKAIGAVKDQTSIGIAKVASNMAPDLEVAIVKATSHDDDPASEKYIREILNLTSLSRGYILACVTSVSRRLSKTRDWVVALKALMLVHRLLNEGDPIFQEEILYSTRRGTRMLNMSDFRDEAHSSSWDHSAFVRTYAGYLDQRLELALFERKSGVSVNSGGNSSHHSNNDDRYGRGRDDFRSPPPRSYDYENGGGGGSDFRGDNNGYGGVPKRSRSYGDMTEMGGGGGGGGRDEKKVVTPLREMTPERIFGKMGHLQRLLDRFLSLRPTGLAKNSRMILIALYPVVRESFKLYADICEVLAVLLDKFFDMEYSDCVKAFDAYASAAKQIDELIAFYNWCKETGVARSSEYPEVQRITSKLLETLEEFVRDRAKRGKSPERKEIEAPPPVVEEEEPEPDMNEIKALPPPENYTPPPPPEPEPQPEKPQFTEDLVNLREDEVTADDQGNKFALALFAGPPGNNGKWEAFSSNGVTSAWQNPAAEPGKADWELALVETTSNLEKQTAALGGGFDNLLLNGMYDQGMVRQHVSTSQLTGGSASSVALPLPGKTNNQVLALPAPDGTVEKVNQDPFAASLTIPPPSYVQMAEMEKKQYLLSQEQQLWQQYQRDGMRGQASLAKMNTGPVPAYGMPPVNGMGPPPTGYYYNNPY
UniProt Q8S9J8: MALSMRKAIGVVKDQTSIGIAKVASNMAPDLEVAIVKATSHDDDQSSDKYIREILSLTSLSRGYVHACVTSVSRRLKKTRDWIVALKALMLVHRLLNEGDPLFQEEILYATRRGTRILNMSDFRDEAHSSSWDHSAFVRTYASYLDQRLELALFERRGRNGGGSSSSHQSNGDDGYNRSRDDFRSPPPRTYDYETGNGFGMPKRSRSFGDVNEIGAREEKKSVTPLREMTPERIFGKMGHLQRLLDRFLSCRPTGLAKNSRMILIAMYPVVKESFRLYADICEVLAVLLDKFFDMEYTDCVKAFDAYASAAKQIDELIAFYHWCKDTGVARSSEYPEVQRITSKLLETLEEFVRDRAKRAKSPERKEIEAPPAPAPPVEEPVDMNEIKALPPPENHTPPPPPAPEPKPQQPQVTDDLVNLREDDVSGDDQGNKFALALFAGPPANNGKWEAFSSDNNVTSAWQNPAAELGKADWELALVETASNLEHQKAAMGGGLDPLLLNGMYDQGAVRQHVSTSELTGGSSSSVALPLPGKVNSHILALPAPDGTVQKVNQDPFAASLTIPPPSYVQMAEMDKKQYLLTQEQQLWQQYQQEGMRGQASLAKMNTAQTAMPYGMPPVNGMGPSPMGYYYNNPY
UniProt Q42374: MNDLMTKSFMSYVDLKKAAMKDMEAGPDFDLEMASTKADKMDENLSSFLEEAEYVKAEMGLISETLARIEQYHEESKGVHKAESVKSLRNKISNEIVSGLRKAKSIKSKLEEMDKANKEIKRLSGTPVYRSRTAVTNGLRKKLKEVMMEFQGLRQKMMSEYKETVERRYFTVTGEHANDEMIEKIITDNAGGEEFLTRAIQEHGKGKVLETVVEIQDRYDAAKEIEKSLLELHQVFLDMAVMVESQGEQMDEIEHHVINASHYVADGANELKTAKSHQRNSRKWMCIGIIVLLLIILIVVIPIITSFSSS
UniProt Q8LBH2: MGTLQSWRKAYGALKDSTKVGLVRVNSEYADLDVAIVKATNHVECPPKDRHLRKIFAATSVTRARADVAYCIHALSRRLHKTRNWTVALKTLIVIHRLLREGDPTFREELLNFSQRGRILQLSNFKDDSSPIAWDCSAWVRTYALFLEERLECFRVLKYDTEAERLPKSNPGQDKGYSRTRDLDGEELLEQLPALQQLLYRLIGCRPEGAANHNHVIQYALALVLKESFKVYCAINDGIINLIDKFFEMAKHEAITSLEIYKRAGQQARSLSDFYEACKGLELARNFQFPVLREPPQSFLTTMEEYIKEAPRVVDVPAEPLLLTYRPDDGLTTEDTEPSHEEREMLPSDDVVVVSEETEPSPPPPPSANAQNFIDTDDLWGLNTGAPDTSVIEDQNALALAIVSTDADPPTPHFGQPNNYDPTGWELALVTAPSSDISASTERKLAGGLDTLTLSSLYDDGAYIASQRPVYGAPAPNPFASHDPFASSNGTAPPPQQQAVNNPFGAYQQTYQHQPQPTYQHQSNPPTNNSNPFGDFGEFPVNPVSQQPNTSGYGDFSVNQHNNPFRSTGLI
UniProt Q8L7A9: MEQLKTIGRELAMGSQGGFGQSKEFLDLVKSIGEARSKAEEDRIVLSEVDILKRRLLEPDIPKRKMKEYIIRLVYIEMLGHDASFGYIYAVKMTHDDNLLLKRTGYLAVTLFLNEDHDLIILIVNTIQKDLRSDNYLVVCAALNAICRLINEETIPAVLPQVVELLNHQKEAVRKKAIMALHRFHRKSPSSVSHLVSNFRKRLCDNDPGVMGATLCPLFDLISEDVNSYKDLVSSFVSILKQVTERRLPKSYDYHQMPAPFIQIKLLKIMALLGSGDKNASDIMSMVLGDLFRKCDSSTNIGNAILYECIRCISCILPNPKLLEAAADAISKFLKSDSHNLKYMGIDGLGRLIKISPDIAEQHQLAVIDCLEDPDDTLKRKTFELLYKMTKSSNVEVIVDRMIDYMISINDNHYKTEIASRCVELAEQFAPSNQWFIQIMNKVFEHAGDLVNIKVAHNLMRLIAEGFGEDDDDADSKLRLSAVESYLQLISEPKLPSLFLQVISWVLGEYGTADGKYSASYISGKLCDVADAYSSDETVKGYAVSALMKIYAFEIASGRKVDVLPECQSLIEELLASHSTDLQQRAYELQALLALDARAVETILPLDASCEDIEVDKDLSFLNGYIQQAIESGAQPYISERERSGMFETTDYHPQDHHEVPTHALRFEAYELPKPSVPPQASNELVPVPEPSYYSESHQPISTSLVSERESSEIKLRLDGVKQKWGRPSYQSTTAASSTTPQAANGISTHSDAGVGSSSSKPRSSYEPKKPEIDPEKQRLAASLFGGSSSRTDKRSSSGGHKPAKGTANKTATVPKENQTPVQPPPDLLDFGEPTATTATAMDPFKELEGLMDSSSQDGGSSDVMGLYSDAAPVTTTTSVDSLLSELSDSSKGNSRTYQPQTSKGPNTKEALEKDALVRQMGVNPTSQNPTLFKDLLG

Experiments:
[1] = biological target: TML fused to TurboID (Arabidopsis thaliana) (UniProt Q9FKM4); assay: proximity labelling
[2] = biological target: T1, AP2M fused to TurboID (Arabidopsis thaliana) (UniProt O23140); assay: proximity labelling
T1 sequence: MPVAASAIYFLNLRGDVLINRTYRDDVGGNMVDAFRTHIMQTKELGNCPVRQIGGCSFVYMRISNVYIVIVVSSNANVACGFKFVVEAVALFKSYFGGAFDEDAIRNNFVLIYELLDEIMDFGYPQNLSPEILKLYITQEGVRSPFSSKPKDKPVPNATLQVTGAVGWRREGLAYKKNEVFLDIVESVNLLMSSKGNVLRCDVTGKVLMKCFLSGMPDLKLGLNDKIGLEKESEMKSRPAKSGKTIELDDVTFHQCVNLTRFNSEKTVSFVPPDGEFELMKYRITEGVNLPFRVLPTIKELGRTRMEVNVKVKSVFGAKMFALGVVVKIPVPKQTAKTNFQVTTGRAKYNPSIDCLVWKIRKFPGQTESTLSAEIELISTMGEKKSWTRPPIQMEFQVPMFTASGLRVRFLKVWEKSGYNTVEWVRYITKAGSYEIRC

[3] = biological target: BCL-2-ASSOCIATED ATHANOGENE4 (BAG4) (Arabidopsis thaliana) (UniProt Q8RX71); assay: affinity purification with mass spectrometry
[4] = biological target: T2, AP3B (Arabidopsis thaliana) (UniProt Q9M2T1); assay: affinity purification with mass spectrometry
T2 sequence: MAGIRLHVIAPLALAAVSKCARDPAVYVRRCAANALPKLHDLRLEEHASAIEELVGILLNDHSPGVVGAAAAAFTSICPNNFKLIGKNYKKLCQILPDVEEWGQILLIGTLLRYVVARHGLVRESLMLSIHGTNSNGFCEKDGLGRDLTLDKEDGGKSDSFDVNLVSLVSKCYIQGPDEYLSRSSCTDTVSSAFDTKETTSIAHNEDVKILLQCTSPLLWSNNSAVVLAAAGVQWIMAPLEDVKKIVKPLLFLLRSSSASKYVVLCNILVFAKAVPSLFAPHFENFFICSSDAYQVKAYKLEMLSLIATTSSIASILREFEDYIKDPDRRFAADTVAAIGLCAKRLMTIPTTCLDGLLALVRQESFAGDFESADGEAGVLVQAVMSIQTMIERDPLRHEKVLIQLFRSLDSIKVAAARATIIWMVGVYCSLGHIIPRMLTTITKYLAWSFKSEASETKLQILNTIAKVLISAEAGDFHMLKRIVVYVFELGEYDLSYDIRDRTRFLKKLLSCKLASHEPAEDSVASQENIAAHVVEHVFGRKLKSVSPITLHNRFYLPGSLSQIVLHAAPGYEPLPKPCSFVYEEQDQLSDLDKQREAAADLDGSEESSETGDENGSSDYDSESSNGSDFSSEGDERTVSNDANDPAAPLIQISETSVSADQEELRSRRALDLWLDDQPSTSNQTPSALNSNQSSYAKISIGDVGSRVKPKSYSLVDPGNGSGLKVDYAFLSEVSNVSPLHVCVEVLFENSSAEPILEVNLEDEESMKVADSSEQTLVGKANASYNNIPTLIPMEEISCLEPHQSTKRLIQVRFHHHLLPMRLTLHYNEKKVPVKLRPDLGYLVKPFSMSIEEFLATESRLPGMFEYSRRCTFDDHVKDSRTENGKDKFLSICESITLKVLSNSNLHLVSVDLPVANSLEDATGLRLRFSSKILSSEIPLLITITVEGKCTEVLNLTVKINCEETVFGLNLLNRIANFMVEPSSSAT

[5] = biological target: ECA4 (Arabidopsis thaliana) (UniProt Q8LF20); assay: affinity purification with mass spectrometry
[6] = biological target: CAP1 (Arabidopsis thaliana) (UniProt Q8S9J8); assay: affinity purification with mass spectrometry
[7] = biological target: BCL-2-ASSOCIATED ATHANOGENE4 (BAG4) (Arabidopsis thaliana) (UniProt Q8RX71); assay: affinity purification with mass spectrometry; remark: listed apart in the source
[8] = biological target: TML fused to TurboID (Arabidopsis thaliana) (UniProt Q9FKM4); assay: proximity labelling; remark: listed apart in the source
[9] = biological target: T2, AP3B (Arabidopsis thaliana); assay: affinity purification with mass spectrometry; remark: listed apart in the source
[10] = biological target: T1, AP2M fused to TurboID (Arabidopsis thaliana); assay: proximity labelling; remark: listed apart in the source

binding [1]: binds
Molecule: BCL-2-ASSOCIATED ATHANOGENE4 (BAG4) (from UniProt Q8RX71 1-269)

binding [2]: binds
Molecule: KNOLLE (cytokinesis-specific syntaxin), prey of PL-MS (from UniProt Q42374)

binding [3]: binds
Molecule: ECA1 (from UniProt Q8LBH2)

binding [4]: binds
Molecule: AP4E (from UniProt Q8L7A9)

binding [3]: binds
binding [5]: binds
Molecule: CAP1 (from UniProt Q8S9J8)

binding [3]: binds
binding [6]: binds
Molecule: ECA4 (from UniProt Q8LF20)

binding [7]: binds
B1: CLC1 (protein, UniProt Q9SKU1 1-338)
chain: MATFDDGDFPAQTHSPSEHEDFGGYDNFSEAQQPPTQHQSGGFSSFNGDPASPNGYGFGASSPNHDFSSPFESSVNDANGNGGGSGGDAIFASDGPILPDPNEMREEGFQRREWRRLNTIHLEEKEKKEKEMRNQIITEAEDFKKAFYEKRDKTIETNKTDNREKEKLYWANQEKFHKEVDKHYWKAIAELIPREVPNIEKKRGKKDPDKKPSVNVIQGPKPGKPTDLGRMRQIFLKLKTNPPPHMMPPPPPAKDAKDGKDAKDGKDAKTGKDGKDAKGGKDAKDLKDGKPADPKVTEEKRPSPAKDASVETAKPDAAASGEGEKPVAVTEAEGTKAE

binding [7]: binds
binding [8]: binds
B2: clathrin light chain subunit 2 (CLC2) (protein, UniProt O04209 1-258)
chain: MSAFEDDSFVILNDDASESVPVSGSFDATDSFSAFDGSLQVEDSVDDVFAAPSSDYGAYSNGDGIFGSNGDHDGPILPPPSEMESDEGFALREWRRQNAIQLEEKEKREKELLKQIIEEADQYKEEFHKKIEVTCENNKAANREKEKLYLENQEKFYAESSKNYWKAIAELVPKEVPTIEKRRGKKEQQDPKKPTVSVIQGPKPGKPTDLTRMRQILVKLKHNPPSHLKLTSQPPSEEAAAPPKNVPETKPTEAVTAA

binding [9]: binds
B3: AP4M (protein, UniProt Q9SB50 1-451)
chain: MMISQFFVLSQRGDNIVFRDYRAEVPKGSTETFFRKVKFWKEDGNAEAPPIFNVDGVNYFHVKVVGLYFVATTRVNVSPSLVLELLQRIARVIKDYLGVLNEDSFRKNFVLVYELLDEVIDFGYVQTTSTEVLKSYIFNEPIVVSPARLQPIDPAAIFTQGAKRMPGTAVTKSVVANDPGGRRREEIFVDIIEKISVTFSSSGYILTSEIDGTIQMKSYLSGNPEIRLALNEDLNIGRGGRSVYDYRSSSGSGVILDDCNFHESVRLDSFDSDRTLSLVPPDGEFPVMNYRMTQEFKPPFHVNTLIEEAGRLKAEVIIKIRAEFPSDIIANTITVQMPLPNYTSRASFELEPGAAGQRTDFKESNKMLEWNLKKIVGGGEHTLRAKLTFSQEFHGNITKEAGPVSMTFTIPMYNVSKLQVKYLQIAKKSSSYNPYRWVRYVTQANSYVARI

binding [10]: binds
B4: FORMIN-LIKE6 (FH6), prey of PL-MS (protein, UniProt Q9FJX6 25-899)
chain: EAHRRILHQPLFPESSTPPPPDFQSTPSPPLPDTPDQPFFPENPSTPQQTLFPPPPPPVSADVNGGLPIPTATTQSAKPGKKVAIVISVGIVTLGMLSALAFFLYRHKAKHASDTQKLVTGGGDGGGSRRFQEDSGPPTTTSSTFLYMGTVEPTRVSASESNGGTNGPVNSSPYRKLNSAKRSERYRPSPELQPLPPLAKPPQPSDNSPSALSPSSSSSGEECRDTAFYTPHGSAISSDDGYYTAFPRSANGSLPHSKRTSPRSKFGSAPTTAASRSPEMKHVIIPSIKQKLPPPVQPPPLRGLESDEQELPYSQNKPKFSQPPPPPNRAAFQAITQEKSPVPPPRRSPPPLQTPPPPPPPPPLAPPPPPQKRPRDFQMLRKVTNSEATTNSTTSPSRKQAFKTPSPKTKAVEEVNSVSAGSLEKSGDGDTDPSKPKLKPLHWDKVRASSDRATVWDQLKSSSFQLNEDRMEHLFGCNSGSSAPKEPVRRSVIPLAENENRVLDPKKSQNIAILLRALNVTREEVSEALTDGNPESLGAELLETLVKMAPTKEEEIKLREYSGDVSKLGTAERFLKTILDIPFAFKRVEAMLYRANFDAEVKYLRNSFQTLEEASLELKASRLFLKLLEAVLMTGNRMNVGTNRGDAIAFKLDTLLKLVDIKGVDGKTTLLHFVVQEITRSEGTTTTKDETILHGNNDGFRKQGLQVVAGLSRDLVNVKKSAGMDFDVLSSYVTKLEMGLDKLRSFLKTETTQGRFFDSMKTFLKEAEEEIRKIKGGERKALSMVKEVTEYFHGNAAREEAHPLRIFMVVRDFLGVLDNVCKEVKTMQEMSTSMGSASARSFRISATASLPVLHRYKARQDDTSSDSEHSSNSST

Read-outs that look alike come from different tables or passages of the source. These are yes or no findings as the source states them, for the method shown. Binding seen in cells or lysates may run through a third protein. Here binding means that the protein was enriched with, or labelled near, the bait; the list need not be complete. For some of these results: Tags and fused reporters may be left off the sequences shown. One block for each molecule: values may come before it.
